Reference: patent publication US20190022061A1, “Statins (Atorvastatin) can lower blood sugar level in diabetic” (priority 2017, published 2019)

How the values were obtained:
Type in all cases: in vivo, C57BL/6J mice
[1] = tested on: Diet-induced obesity (DIO) mice; experiment: OGTT (oral glucose tolerance test) in DIO mice; conditions: po three times a day, compared with the vehicle groups
Protocol: (§1) In this study, RAASUS products (KH103, KHJ and KHGD) were dosed three times a day (T ID) for 99 days. Atorvastatin was used as a positive control at a dose of 20 mg/kg three times a day (T ID). On day 63 post dosing, OGTT test were conducted for all of the mice. On the day 65 post dosing, 6 mice from each group were killed for bio-marker samples collection. Body weight and food intake were detected twice per week. On day −5, day 14, day 28 the non-fast blood was collected to determine the non-fast BG, insulin, TG, HDL-C, LDL-C and TCHO level. On day 42, day 56, day 70, day 84 the fast blood was collected to determine the fast BG, insulin, TG, HDL-C, LDL-C and TCHO level.
Male C57BL/6J mice (Shanghai Laboratory Animal Center, Shanghai, China, 5 weeks) were fed with high fat diet (D12492i, Research Diet, New Brunswick, N.J.) (caloric contribution: protein, 20%; fat, 60%; carbohydrates, 20%) ad lib for 21 weeks for the induction of obesity.
The mice of group 1 and group 2 were orally dosed with vehicle or Atorvastatin-20 mg/l<g respectively three times per day at 9:00, 13:00, 17:00 and fresh water, ad libitum from Day O to Day 99. […]
(§2) The fast blood glucose (fast from 17:30 to 8:00 AM) insulin level were measured using tailing nick once per two weeks on day 42, day 56, day 70, day 84. […]

[2] = tested on: Diet-induced obesity (DIO) mice; experiment: Blood glucose level in DIO mice; conditions: po three times a day, compared with the vehicle groups, 8 weeks post dose
Protocol: as §1
(§3) Male C57BL/6J mice (Shanghai Laboratory Animal Center, Shanghai, China, 5 weeks) were fed with high fat diet (D12492i, Research Diet, New Brunswick, N.J.) (caloric contribution: protein, 20%; fat, 60%; carbohydrates, 20%) ad lib for 21 weeks for the induction of obesity. […]
(§4) The random blood glucose, insulin level were measured using tailing nick once per two weeks on day −5, day 14, day 28.
as §2
Blood Glucose: Blood glucose was determined using the Glucosemeter (Johnson and Johnson) and the Glucose Test Strips (Johnson and Johnson).

[3] = tested on: Diet-induced obesity (DIO) mice; experiment: Plasma insulin level in DIO mice; conditions: po three times a day
Protocol: as §1, §3, §4, §2
Plasma Insulin assay: Plasma insulin was determined using a commercial kit (Catalog #: EZRM1-13K) purchased from Millipore (Billerica, Mass., USA).

In the case of `CC(C)c1c(C(=O)Nc2ccccc2)c(-c2ccccc2)c(-c2ccc(F)cc2)n1CC[C@@H](O)C[C@@H](O)CC(=O)O` [Atorvastatin], the “OGTT glucose AUC (0-120 min)” value ([1]; post dose 63 days) was “significantly decrease”, the “OGTT glucose AUC (0-120 min)” value ([1]; post dose 91 days) was “significantly decrease” and the “blood glucose level AUC (0-8 weeks)” value [2] was “significantly decrease”. For the same compound, the plasma insulin level ([3]; 10 weeks and 12 weeks post dose) was “trend to decrease” and the “insulin AUC (0-8 weeks)” value ([3]; compared with the vehicle groups, post dose 8 weeks) was “significantly decrease”.
